Source: paper doi:10.1101/2025.08.01.668162
Read-outs that look alike come from different tables or passages of the source. These are yes or no findings as the source states them, for the method shown. Binding seen in cells or lysates may run through a third protein. Some results given as binding are weak or reduced against the parent protein; the word gives no strength.

Protein sequences, listed by entry. Tags and fused reporters are not part of them. Lines headed by an entry give the natural chain unless they say otherwise; changes in a name come on top. Chains listed by the source or under a name are the forms on record and can include a tag or linker. Residues count along the entry.
UniProt Q9DBY1: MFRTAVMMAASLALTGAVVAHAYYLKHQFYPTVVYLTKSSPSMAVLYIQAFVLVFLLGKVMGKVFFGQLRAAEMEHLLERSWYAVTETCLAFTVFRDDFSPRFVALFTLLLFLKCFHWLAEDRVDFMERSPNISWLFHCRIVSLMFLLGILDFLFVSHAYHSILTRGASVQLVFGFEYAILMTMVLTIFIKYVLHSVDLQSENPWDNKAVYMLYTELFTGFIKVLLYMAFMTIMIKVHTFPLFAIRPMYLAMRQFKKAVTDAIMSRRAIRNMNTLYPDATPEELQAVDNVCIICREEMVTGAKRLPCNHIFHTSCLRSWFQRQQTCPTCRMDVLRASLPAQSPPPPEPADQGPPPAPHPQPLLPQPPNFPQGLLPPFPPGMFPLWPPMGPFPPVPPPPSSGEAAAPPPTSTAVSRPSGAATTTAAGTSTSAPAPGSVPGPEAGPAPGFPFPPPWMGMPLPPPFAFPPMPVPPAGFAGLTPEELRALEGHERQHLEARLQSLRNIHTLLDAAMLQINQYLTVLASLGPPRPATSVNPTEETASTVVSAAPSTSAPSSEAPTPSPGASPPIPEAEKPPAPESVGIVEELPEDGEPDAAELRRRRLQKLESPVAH
SEL1L (mouse, wild type) (mouse (endogenous in MEFs and liver)) (Q9Z2G6, residues 22-790): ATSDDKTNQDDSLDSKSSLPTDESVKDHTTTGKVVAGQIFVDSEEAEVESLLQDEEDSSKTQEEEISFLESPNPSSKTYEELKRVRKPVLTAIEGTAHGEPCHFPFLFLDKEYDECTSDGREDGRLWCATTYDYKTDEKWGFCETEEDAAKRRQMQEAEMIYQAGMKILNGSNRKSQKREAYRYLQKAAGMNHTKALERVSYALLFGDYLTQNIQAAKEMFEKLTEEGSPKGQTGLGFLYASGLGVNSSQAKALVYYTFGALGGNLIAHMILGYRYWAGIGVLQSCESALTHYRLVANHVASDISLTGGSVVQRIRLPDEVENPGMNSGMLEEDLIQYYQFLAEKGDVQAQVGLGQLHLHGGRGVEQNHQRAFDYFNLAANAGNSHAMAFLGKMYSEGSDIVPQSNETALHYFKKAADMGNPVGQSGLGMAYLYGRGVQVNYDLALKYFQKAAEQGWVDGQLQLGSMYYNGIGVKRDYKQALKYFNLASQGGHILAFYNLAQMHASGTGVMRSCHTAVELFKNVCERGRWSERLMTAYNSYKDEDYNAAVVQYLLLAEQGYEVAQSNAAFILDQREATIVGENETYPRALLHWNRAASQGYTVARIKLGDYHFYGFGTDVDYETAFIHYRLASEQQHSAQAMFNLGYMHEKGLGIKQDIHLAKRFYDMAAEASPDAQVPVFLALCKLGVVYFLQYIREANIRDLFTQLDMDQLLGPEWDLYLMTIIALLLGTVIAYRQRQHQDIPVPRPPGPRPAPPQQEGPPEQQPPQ
SEL1L P699T (mouse knock-in, mouse P695T) (mouse (endogenous in MEFs)) (Q9Z2G6, form named): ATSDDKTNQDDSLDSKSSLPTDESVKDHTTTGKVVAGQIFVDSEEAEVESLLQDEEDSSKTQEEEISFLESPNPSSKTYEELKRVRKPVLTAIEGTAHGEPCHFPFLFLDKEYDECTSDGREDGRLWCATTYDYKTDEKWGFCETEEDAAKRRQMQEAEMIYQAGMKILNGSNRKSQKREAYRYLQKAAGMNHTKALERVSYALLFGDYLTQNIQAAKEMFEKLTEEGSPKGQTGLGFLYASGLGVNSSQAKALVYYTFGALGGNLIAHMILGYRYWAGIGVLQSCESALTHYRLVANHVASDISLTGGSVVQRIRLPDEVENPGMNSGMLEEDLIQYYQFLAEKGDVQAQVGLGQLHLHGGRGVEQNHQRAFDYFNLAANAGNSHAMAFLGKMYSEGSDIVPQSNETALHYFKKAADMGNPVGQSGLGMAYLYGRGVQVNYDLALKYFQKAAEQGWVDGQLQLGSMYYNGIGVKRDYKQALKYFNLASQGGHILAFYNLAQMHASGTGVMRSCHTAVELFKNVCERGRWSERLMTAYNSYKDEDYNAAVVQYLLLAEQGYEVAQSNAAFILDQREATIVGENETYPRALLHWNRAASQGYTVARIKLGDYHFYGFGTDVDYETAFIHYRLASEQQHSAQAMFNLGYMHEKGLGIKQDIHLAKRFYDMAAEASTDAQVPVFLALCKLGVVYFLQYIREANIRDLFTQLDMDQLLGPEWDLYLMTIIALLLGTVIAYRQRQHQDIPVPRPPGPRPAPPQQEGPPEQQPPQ
SEL1L L709P (mouse knock-in, mouse L705P) (mouse (endogenous in MEFs and liver)) (Q9Z2G6, form named): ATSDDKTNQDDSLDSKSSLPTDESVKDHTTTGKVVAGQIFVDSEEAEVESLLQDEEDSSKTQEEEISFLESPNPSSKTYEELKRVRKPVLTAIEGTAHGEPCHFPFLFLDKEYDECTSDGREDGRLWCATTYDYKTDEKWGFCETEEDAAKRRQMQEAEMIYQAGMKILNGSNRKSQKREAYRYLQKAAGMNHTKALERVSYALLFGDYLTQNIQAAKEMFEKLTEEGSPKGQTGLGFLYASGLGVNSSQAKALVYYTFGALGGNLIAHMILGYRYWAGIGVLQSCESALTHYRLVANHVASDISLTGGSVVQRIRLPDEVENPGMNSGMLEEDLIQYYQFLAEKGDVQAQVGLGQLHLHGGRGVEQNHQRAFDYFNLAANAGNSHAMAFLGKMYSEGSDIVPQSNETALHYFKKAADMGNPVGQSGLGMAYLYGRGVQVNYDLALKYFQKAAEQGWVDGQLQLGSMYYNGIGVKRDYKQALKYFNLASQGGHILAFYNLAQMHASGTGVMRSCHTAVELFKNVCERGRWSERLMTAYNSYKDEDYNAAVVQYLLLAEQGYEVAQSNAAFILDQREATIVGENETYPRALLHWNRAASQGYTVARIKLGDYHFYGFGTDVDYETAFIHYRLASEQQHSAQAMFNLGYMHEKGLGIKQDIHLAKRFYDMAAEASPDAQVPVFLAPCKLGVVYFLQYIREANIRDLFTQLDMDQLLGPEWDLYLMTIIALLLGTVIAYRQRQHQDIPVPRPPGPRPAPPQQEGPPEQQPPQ
SEL1L (human, wild type) (human (endogenous in HEK293T)) (Q9UBV2, residues 22-794): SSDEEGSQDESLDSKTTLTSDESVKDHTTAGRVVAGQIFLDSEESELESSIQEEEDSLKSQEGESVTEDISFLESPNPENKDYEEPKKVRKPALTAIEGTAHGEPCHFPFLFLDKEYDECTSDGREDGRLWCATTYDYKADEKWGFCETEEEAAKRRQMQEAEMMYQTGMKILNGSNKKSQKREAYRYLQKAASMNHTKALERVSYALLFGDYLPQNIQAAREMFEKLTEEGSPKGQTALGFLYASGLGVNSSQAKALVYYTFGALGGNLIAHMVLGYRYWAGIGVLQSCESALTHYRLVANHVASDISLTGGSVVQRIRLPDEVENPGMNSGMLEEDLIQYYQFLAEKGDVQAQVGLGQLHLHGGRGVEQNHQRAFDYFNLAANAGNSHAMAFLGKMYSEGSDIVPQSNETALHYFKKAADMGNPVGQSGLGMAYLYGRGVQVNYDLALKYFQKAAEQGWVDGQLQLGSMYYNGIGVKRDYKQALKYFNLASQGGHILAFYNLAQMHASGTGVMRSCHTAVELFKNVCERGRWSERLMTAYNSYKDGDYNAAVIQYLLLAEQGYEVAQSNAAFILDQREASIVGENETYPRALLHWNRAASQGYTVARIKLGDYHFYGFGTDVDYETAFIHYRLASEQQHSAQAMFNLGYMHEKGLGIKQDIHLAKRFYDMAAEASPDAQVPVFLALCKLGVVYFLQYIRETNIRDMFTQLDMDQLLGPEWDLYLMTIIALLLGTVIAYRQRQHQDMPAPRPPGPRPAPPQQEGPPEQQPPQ
SEL1L L709P (human, knock-in HEK293T) (human (endogenous in HEK293T)) (Q9UBV2, form named): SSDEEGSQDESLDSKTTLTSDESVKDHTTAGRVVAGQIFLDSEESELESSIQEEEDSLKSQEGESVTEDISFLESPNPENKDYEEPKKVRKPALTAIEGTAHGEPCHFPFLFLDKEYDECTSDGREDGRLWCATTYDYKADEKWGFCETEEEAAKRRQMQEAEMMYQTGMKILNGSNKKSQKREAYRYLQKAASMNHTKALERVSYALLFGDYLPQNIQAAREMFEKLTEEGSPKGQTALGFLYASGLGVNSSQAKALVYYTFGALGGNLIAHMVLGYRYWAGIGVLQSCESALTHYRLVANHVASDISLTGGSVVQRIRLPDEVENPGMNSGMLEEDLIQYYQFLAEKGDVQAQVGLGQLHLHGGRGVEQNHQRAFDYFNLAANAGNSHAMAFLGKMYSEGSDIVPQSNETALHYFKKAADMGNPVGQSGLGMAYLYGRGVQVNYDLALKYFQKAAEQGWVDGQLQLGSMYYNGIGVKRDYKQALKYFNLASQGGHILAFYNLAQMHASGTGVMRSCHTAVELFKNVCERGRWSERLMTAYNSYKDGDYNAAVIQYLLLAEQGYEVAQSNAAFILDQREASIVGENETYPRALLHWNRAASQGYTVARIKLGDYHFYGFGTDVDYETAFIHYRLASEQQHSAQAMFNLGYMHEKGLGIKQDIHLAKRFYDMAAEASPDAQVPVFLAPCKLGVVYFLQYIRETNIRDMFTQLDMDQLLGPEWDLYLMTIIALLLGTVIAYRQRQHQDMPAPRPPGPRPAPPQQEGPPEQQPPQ

What was measured:
Assay in all cases: co-IP
[1] = target: HRD1 (mouse) (mouse (endogenous in MEFs and liver)) (UniProt Q9DBY1)
[2] = target: SEL1L (mouse, wild type) (mouse (endogenous in MEFs and liver)) (UniProt Q9Z2G6)
[3] = target: SEL1L (mouse, wild type) (mouse (endogenous in MEFs and liver)) (UniProt Q9Z2G6); remark: listed apart in the source
[4] = target: SEL1L P699T (mouse knock-in, mouse P695T) (mouse (endogenous in MEFs)) (UniProt Q9Z2G6)
[5] = target: SEL1L (human, wild type) (human (endogenous in HEK293T)) (UniProt Q9UBV2)
[6] = target: SEL1L L709P (human, knock-in HEK293T) (human (endogenous in HEK293T)) (UniProt Q9UBV2)
[7] = target: SEL1L L709P (mouse knock-in, mouse L705P) (mouse (endogenous in MEFs and liver)) (UniProt Q9Z2G6)
[8] = target: SEL1L L709P (mouse knock-in, mouse L705P) (mouse (endogenous in MEFs and liver)) (UniProt Q9Z2G6); remark: listed apart in the source

For “SEL1L (mouse, wild type) (from UniProt Q9Z2G6 22-790)”, the binding [1] was “binds”.

“HRD1 (mouse) (from UniProt Q9DBY1 1-612)” was tested, and the binding [2] was “binds”, the binding [3] was “binds” and the binding [4] was “binds”.

B1: UBE2J1 (human) (enzyme, UniProt Q9Y385 1-318)
chain: METRYNLKSPAVKRLMKEAAELKDPTDHYHAQPLEDNLFEWHFTVRGPPDSDFDGGVYHGRIVLPPEYPMKPPSIILLTANGRFEVGKKICLSISGHHPETWQPSWSIRTALLAIIGFMPTKGEGAIGSLDYTPEERRALAKKSQDFCCEGCGSAMKDVLLPLKSGSDSSQADQEAKELARQISFKAEVNSSGKTISESDLNHSFSLTDLQDDIPTTFQGATASTSYGLQNSSAASFHQPTQPVAKNTSMSPRQRRAQQQSQRRLSTSPDVIQGHQPRDNHTDHGGSAVLIVILTLALAALIFRRIYLANEYIFDFEL
With B1 the binding [5] was “binds” and the binding [6] was “binds”.

B2: OS9 (human) (protein, UniProt Q13438 26-667)
chain: GGVGSLNLEELSEMRYGIEILPLPVMGGQSQSSDVVIVSSKYKQRYECRLPAGAIHFQREREEETPAYQGPGIPELLSPMRDAPCLLKTKDWWTYEFCYGRHIQQYHMEDSEIKGEVLYLGYYQSAFDWDDETAKASKQHRLKRYHSQTYGNGSKCDLNGRPREAEVRFLCDEGAGISGDYIDRVDEPLSCSYVLTIRTPRLCPHPLLRPPPSAAPQAILCHPSLQPEEYMAYVQRQADSKQYGDKIIEELQDLGPQVWSETKSGVAPQKMAGASPTKDDSKDSDFWKMLNEPEDQAPGGEEVPAEEQDPSPEAADSASGAPNDFQNNVQVKVIRSPADLIRFIEELKGGTKKGKPNIGQEQPVDDAAEVPQREPEKERGDPERQREMEEEEDEDEDEDEDEDERQLLGEFEKELEGILLPSDRDRLRSEVKAGMERELENIIQETEKELDPDGLKKESERDRAMLALTSTLNKLIKRLEEKQSPELVKKHKKKRVVPKKPPPSPQPTEEDPEHRVRVRVTKLRLGGPNQDLTVLEMKRENPQLKQIEGLVKELLEREGLTAAGKIEIKIVRPWAEGTEEGARWLTDEDTRNLKEIFFNILVPGAEEAQKERQRQKELESNYRRVWGSPGGEGTGDLDEFDF
B2 was tested, and the binding [5] was “binds” and the binding [6] was “binds”.

B3: UBE2J1 (mouse) (enzyme, UniProt Q9JJZ4 1-318)
chain: METRYNLKSPAVKRLMKEAAELKDPTDHYHAQPLEDNLFEWHFTVRGPPDSDFDGGVYHGRIVLPPEYPMKPPSIILLTANGRFEVGKKICLSISGHHPETWQPSWSIRTALLAIIGFMPTKGEGAIGSLDYTPEERRALAKKSQDFCCEGCGSAMKDVLLPLKSGSGSSQADQEAKELARQISFKAEVNSSGKTIAESDLNQCFSLNDSQDDLPTTFQGATASTSYGAQNPSGAPLPQPTQPAPKNTSMSPRQRRAQQQSQRRPSTSPDVLQGQPPRAHHTEHGGSAMLIIILTLALAALIFRRIYLANEYIFDFEL
With B3 the binding [2] was “binds”, the binding [7] was “binds” and the binding [3] was “binds”. The binding [8] was “binds”.
